# Laboratory results: PubChem BioAssay AID493014 (National Center for Advancing Translational Sciences (NCATS), 2011)
# Values joined by “and” are separate entries in the source; they are usually repeats but may differ in a detail not shown here. Equal entries are not always repeated. The list shows a part of the results. The main result of the screen is listed elsewhere. These columns were measured beside it and carry no call. The list favours compounds with an active or inconclusive main result. Potencies come from curve fits of mixed quality, noted in brackets.
# Assay: qHTS Assay to Find Inhibitors of Chronic Active B-Cell Receptor Signaling
# Details: ABC-DLBCL IkBa-CBG/CBR reporter, luminescence ratio (green luciferase fused to IkBa over red control in TMD8 lymphoma cells), 4 h
# Outline: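 Concentration-response series (up to 46 uM) were applied to TMD8 dual-reporter cells for 4 h at 37C with doxycycline. Green/red ratio, after filter-overlap correction, defined %Activity; red signal alone was normalised to basal cells and zero luminescence.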
# [1] = measured here: CBR red luminescence, cell number
SMILES,AC50 [1],AC50 (measured here: IkBa-CBG green luminescence)
Cc1nc2sc(C(c3cccs3)N3CCOCC3)c(O)n2n1 (stereo not drawn),"14.6 µM [rising, partial curve]",
CCc1cccc(NC(=O)CCc2nc(-c3cccs3)no2)c1,"16.4 µM [rising, partial curve, poor fit]",
CCOCC(=O)Nc1c(C(=O)Nc2ccccc2OC)oc2ccccc12,"6.31 µM [rising, single point]",
CC(=O)Nc1ccc(C(=O)COC(=O)CCc2ccccc2)c(F)c1,"29.1 µM [rising, single point]",
O=C(COC(=O)c1ccccc1NCCO)NCCC1=CCCCC1,"5.17 µM [falling, full curve]",
O=C(CCN1C(=O)/C(=C\C=C\c2ccccc2)SC1=S)Nc1cccc(C(=O)O)c1,"0.501 µM [falling, full curve]",
Cc1ccsc1CN(C)C(=O)c1cc(S(=O)(=O)N2CCOCC2)ccc1N1CCCC1,"29.1 µM [falling, single point]",
Cc1[nH]c2ccccc2c1/C=C(/C#N)C(=O)NC(C)C,"5.01 µM [falling, partial curve, poor fit]",
CC(C)C[C@H](NC(=O)N1CCn2c1nc1ccccc12)C(=O)NCc1ccc2c(c1)OCO2,"35.5 µM [falling, single point]",
CN1CCN(c2cc3c(c4c2[nH]c2ccccc24)C(=O)CC(C)(C)C3)CC1,"14.6 µM [falling, single point]",
COc1ccccc1NC(=O)N1CCC(c2nc3cc(C)c(C)cc3[nH]2)CC1,,"5.8 µM [falling, full curve]"
CC(=O)c1cnc2c(-c3cccc(Br)c3)cnn2c1C,"2.31 µM [rising, partial curve, poor fit]",
COc1cccc(CN2CCN(Cc3cc(OC)c(OC)c(OC)c3)CC2)c1OC,"35.5 µM [falling, single point]",
COc1ccc(C2NC(=O)c3ccccc3O2)cc1 (stereo not drawn),"15.8 µM [rising, single point]",
Cc1ccc(C)c(N2CCN(S(=O)(=O)c3cc4c(cc3C)NC(=O)CO4)CC2)c1,"12.6 µM [rising, single point]",
CCN(C(=O)CSc1cc(-c2ccccc2)c2ccc(OC)cc2n1)C1CCS(=O)(=O)C1 (stereo not drawn),"20.6 µM [falling, single point]",
Cc1ccc(/C=N/N(C)C2=NS(=O)(=O)c3ccccc32)cc1,"3.98 µM [rising, single point]",
O=C(N/N=C\c1ccc(F)cc1)c1ccc(F)cc1,"10 µM [falling, partial curve, poor fit]",
CCc1c(C)nc2cc(-c3ccc(OC)c(OC)c3)nn2c1N1CCCC1,"22.4 µM [falling, single point]",
COC(=O)c1c(NC(=S)NN2CCOCC2)sc2c1CCCC2,"2.51 µM [rising, partial curve]",
N#Cc1c(NC(=O)CCCC(=O)O)sc2c1CCCCC2,"29.1 µM [falling, single point]",

# A draw from above in order of length of the SMILES, low to high.
SMILES,AC50 [1],AC50 (measured here: IkBa-CBG green luminescence)
CC(=O)c1cnc2c(-c3cccc(Br)c3)cnn2c1C,"2.31 µM [rising, partial curve, poor fit]",
COC(=O)c1c(NC(=S)NN2CCOCC2)sc2c1CCCC2,"2.51 µM [rising, partial curve]",
CCc1c(C)nc2cc(-c3ccc(OC)c(OC)c3)nn2c1N1CCCC1,"22.4 µM [falling, single point]",

# Following part.

SMILES,AC50 [1],AC50 (measured here: IkBa-CBG green luminescence)
O=C(Nc1cccc(C(F)(F)F)c1)Nc1ccc(N2CCCC2)c(S(=O)(=O)Nc2ccccc2Cl)c1,"4.11 µM [falling, full curve, poor fit]",
C=CCN(c1ccccc1OC)S(=O)(=O)c1ccc(Cl)c(C(=O)Nc2ccc(N3CCOCC3)cc2)c1,"35.5 µM [falling, single point]",
Cc1ccc(Nc2nc3ccccc3n3nnnc23)cc1,"3.16 µM [falling, partial curve, poor fit]",
CCCCNC(=O)c1cnn2c(C)c(Cc3c(F)cccc3Cl)c(C)nc12,"2.51 µM [falling, partial curve, poor fit]",
Nc1ccc(C(=O)Nc2cccc(N)c2)cc1,"1.26 µM [falling, full curve, poor fit]",
O=C(COC(=O)c1c2c(nc3ccccc13)CCCC2)Nc1ccc2c(c1)OCO2,"14.1 µM [falling, single point]",
COc1ccc(NC(=O)CN2C(=O)CSc3ccc(S(=O)(=O)N4CCCC4)cc32)cc1OC,"22.4 µM [rising, single point]",
N=C1C(c2nc3ccccc3s2)=C(O)CN1NC(=O)c1c[nH]c2ccccc12,"12.6 µM [falling, single point]",
Cc1ccccc1Cn1c(CN2CCC(C(=O)NCCN(C)C)CC2)cc2ccccc21,"10 µM [falling, partial curve, poor fit]",
COc1ccc(Cl)cc1NC(=O)CN(C)C(=O)c1ccc2c(c1)CC(c1ccccc1)OC2=O (stereo not drawn),"16.4 µM [falling, single point]",
Fc1cccc(Nc2nc3ccccc3n3cnnc23)c1,"3.16 µM [rising, partial curve, poor fit]",
Cc1ccn2c(C(=O)N/N=C/c3ccc(CNC(=O)C(=O)Nc4ccc(C)c(C)c4)o3)c(C)nc2c1,"7.31 µM [falling, partial curve]",
Cc1cccc(N2CCN(C(=O)CCSCc3ccccc3F)CC2)c1C,"6.31 µM [rising, single point]",
CCCC(=O)N(CCN(Cc1ccccc1)C(=O)CCC)Cc1ccccc1,"35.5 µM [falling, single point]",
CCOc1cccc(C(=O)NC(=S)Nc2ccc(Cl)cc2C(=O)O)c1,"3.98 µM [falling, partial curve]",
CN(C)S(=O)(=O)N(CC(=O)Nc1ccc(S(=O)(=O)N2CCCC2)cc1)c1ccccc1,"6.31 µM [rising, single point]",
COc1cccc(CCNC(=O)c2ccc(C#N)cc2)c1,"0.501 µM [rising, partial curve, poor fit]",
Cn1ncc2c(NNC(=O)c3ccc(O)cc3)ncnc21,"10 µM [falling, partial curve]",
O=C(CCCOc1ccccc1)N1CCc2ccccc2C1,"1.46 µM [rising, full curve, poor fit]",
O=c1cc[nH]c2c1ccc1cccnc12,"29.1 µM [falling, single point]",
CN(C)S(=O)(=O)c1ccc(C(=O)Nc2ccc(-n3nncc3-c3ccccc3)cc2)cc1,"3.55 µM [rising, single point]",

SMILES,AC50 [1],AC50 (measured here: IkBa-CBG green luminescence)
Cc1c(Br)c([N+](=O)[O-])nn1CC(=O)Nc1ccc2nc3n(c(=O)c2c1)CCCC3,"35.5 µM [falling, single point]",
CN(C)S(=O)(=O)c1cccc(C(=O)Nc2cc(Cl)ccc2O)c1,"1 µM [rising, full curve, poor fit]",
CC(C)(C)OC(=O)N1CCC(c2c(C(=O)NCC3CCN(C4CCCC4)C3)cnn2-c2cccc(Cl)c2)CC1 (stereo not drawn),"11.2 µM [falling, partial curve, poor fit]",
O=[N+]([O-])c1ccc(Oc2ccc(C(F)(F)F)cn2)cc1,"17.8 µM [rising, single point]",
CCN(CC(=O)Nc1c(F)cccc1F)C(=O)c1ccc(-c2ccccc2)cc1,"0.651 µM [falling, full curve]",
O=C(N/N=C/c1ccc(O)cc1)c1ccc(COc2cc(Cl)ccc2Cl)o1,"7.08 µM [falling, full curve]",
Cc1c(N/C=C/C(=O)c2ccc(Cl)cc2)c(=O)n(-c2ccccc2)n1C,"9.2 µM [falling, partial curve]",
O=C(N/N=C/c1ccc(-c2cccc(C(F)(F)F)c2)o1)c1ccccc1O,"14.6 µM [falling, partial curve, poor fit]",
CCC(=O)NCCc1nc2cc(NC(=O)c3ccc(Cl)cc3)ccc2n1C,"10 µM [falling, partial curve, poor fit]",
COC(=O)c1ccc(COc2cc(O)c3c(c2)OC(C)(C)CC3=O)cc1,"15.8 µM [rising, partial curve, poor fit]",
COCCNC(=O)[C@@H]1CCCN1S(=O)(=O)c1cccc2cccnc12,"18.4 µM [rising, partial curve, poor fit]",
CCOC(=O)c1cnc2ccc(OCC)cc2c1N1CCN(c2ccccc2OC)CC1,"29.1 µM [falling, single point]",
N=c1n(CCN2CCCCC2)c2ccccc2n1CC(O)c1cccc(Br)c1 (stereo not drawn),"12.6 µM [falling, partial curve]",
CC1=C(C#N)C(/C=N/OCc2ccc(F)cc2Cl)CC(=O)N1 (stereo not drawn),"12.6 µM [rising, partial curve, poor fit]",
COC(=O)c1ccc(C(=O)N=c2sccn2C)cc1,"5.01 µM [falling, partial curve]",
C/C(=N\NC(=O)c1cc(Br)ccc1O)c1ccccn1,"0.562 µM [falling, full curve]",
Clc1ccccc1-c1ccc2ncnc(NCc3ccc4c(c3)OCO4)c2c1,"32.6 µM [falling, single point] and 16.4 µM [falling, single point]",
CC1(C)CC(=O)C2=C(C1)Oc1ncn(Cc3ccco3)c(=N)c1C2c1ccccc1 (stereo not drawn),"17.8 µM [falling, single point]",
COc1c(C)cccc1C(=O)Nc1ccc(N2CCN(C(=O)c3ccccc3C)CC2)cc1,"15.8 µM [falling, partial curve]",
Cc1ccc(OCC(O)Cn2c(=N)n(CCN3CCCCC3)c3ccccc32)cc1 (stereo not drawn),"20.6 µM [falling, single point]",
O=S(=O)(Nc1cccc(S(=O)(=O)N2CCCC2)c1)c1cccc(Br)c1,"9.2 µM [falling, partial curve, poor fit]",
